Results are given in words; binding and its absence hold for the method and conditions named.
Assays:
[1] = target: mutant CwlF-3×FLAG protein having no active domain (Bacillus subtilis); test: anti-FLAG purification of cell surface extract of the WE13xLysM3FL strain, SDS-PAGE
[2] = target: mutant CwlE-3×FLAG protein having no active domain (Bacillus subtilis); test: anti-FLAG purification of cell surface extract of the WE15xLysM3FL strain, SDS-PAGE (protein from cells of OD600=2,000 loaded)

- binding [1]: no binding
- binding [2]: no binding
B1: YoeB protein (protein)
chain: KNTSGDLSQKQALQLALSAREHFWNTMSGHNPKVKKAVCPSGTFEYQNLQYVYMCSDLGTKAKAVNYLTPIFTKTAIEKGFKDYHFTVSKGKLAVPIGDGDNLLNWKKSTAKLISKKGSTITYEFTVPTLDGSPSAKRKVTFVKENKKWKVNQFDAVI
